Experimental data published in patent US20070043102A1, “Oral suspension of tegaserod” (priority 2003, published 2007).

Test: Masking of the bitter taste of tegaserod (palatability, subjective impression of one test person)
Method: The palatability of the resulting suspensions is determined by the subjective impression of one test person. Thus, it is found by this evaluation that the bitter taste of tegaserod is masked in apple juice and in orange juice but not in water.

CCCCCNC(=N)NN=Cc1c[nH]c2ccc(OC)cc12 [Tegaserod, 3-(5-methoxy-1H-indol-3-yl-methylene)-N-pentylcarbazimidamide]
bitter taste masked (in apple juice): masked | bitter taste masked (in orange juice): masked | bitter taste masked (in water): not
